Experimental findings from paper PMC7593309 are described below.

Protein sequences, listed by entry. Tags and fused reporters are not part of them.
UniProt Q9LSX0, whole entry W23A: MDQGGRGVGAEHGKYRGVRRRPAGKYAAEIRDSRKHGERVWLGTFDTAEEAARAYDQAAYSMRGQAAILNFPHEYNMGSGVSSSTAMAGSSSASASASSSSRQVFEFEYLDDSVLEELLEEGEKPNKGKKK

This data set deals with AtERF96 W23A (Arabidopsis thaliana) (UniProt Q9LSX0). The experiment in a line: EMSA. The following applies: fEMSA: 30 mM HEPES pH 7.4, 62.5 mM NaCl, 5% glycerol, 30 min RT, gel at 4 C; recombinant protein; residues 1-131; protein details: N-terminal 6xHis (pET28a); label: 5'-fluorescein on forward strand. Background: A gel shift assay detects complexes by their altered migration in electrophoresis.

The comparison behind a weaker result is the experiment's own reference, which may not be listed here.

In the case of “TAGCCGCCAGC (double strand) [GCC11 probe (fEMSA)]”, the binding result is on record as “binds more weakly”.
